No constants are given. Whether binding was seen depends on the method and setting. Binding seen in cells or lysates may run through a third protein. Binding calls can cover weak binding; strength is not graded here. Tags and fused reporters may be left off the sequences shown.
Target: T1, IFT20-GST (UniProt Q8LLV9)
T1 sequence: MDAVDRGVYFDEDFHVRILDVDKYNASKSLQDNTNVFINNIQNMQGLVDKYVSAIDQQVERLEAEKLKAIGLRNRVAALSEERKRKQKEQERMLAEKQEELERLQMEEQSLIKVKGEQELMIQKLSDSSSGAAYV
Experiment: pull-down; IFT20-GST or recombinant GST incubated with 1 ml pre-cleared C. reinhardtii total cell lysate in PBS at 4 °C for 3 h, then GST beads for 1 h; washed three times with cold PBS; immunoblot with anti-ChR1 peptide and anti-GST; only the target purified

Channelrhodopsin 1
binding: binds

— paper PMC5046144
